Data published in US20100021918A1, “METHOD FOR ASSAYING ACTION OF ANTITUMOR AGENT USING SPLICING DEFECTS AS INDEX” (Eisai R&D Management Co., Ltd., priority 2007, published 2010).
The source gives many values for each of these; only a part stands here.

Tested on: peripheral blood mononuclear cells (PBMC)
Assay: Microarray analysis (3), dose-dependent intron expression in PBMC at 3, 10, 30 nM, Table 5
Format: cell-based, human
Method: PBMC was suspended in RPMI1640 medium (containing 10% FBS, penicillin, and streptomycin) to 5×10^6 cells/ml and 1 ml of the suspension was plated per well of a 24-well plate. Immediately, 111 μl of 10 times-concentrated (8E,12E,14E)-7-((4-cycloheptylpiperazin-1-yl)carbonyl)oxy-3,6,16,21-tetrahydroxy-6,10,12,16,20-pentamethyl-18,19-epoxytricosa-8,12,14-trien-11-olide was added to the well (six wells per each concentration tested). The cells were then cultured in an incubator with 5% carbon dioxide gas at 37° C. Three hours later, the supernatant was collected and centrifuged at 1500 rpm for five minutes. TRI reagent (SIGMA) (1 ml) was added to each well of the plate from which the supernatant was removed to harvest the cells, which was added to the centrifuged pellet to dissolve. RNA was purified in accordance with the protocol of TRI reagent. RNA was further purified using RNeasy (QIAGEN) and, in accordance with the protocol, DNaseI was added to the samples during the procedure. Absorbance at 260 nm was measured to quantify an amount of RNA.
Ribosomal RNA was removed from 1 μg of each total RNA of control cells (n=3) and cells with the treatment (n=3) using RiboMinus Human/Mouse Transcriptome Isolation Kit (Invitrogen). Single stranded cDNA synthesis, double stranded cDNA synthesis, cRNA synthesis, second single stranded cDNA synthesis, cDNA fragmentation, and cDNA labeling in order were carried out for total RNA from which ribosomal RNA was removed, using GeneChip Whole Transcript Sense Target Labeling and Control Reagents (Affymetrix) to make a cDNA probe. Subsequently, the cDNA probe was used for hybridization with Human Exon 1.0 ST Array (Affymetrix). The array was washed and stained, and luminescence intensity was measured by a scanner.
The expression level of the probe set and the gene was quantified by using Expression Console Ver. 1.0 (Affymetrix) with Summarization Method and Normalization Method being set to “Median polish as used in RMA” and “None”, respectively. The expression level of the probe was normalized with that of the gene.
Probe sets showing that the normalized change in the level expression of the probe set in the group with the treatment at 30 nM was more than 5 times; the expression level of the probe set and the gene in the group with the treatment at 30 nM was more than 100; and probe set annotation was “extended, full, free”, were picked out. Regression analysis was performed with the probe sets extracted for the control group, the group with the treatment at 3 nM, the group with the treatment at 10 nM, and the group with the treatment at 30 nM to determine a p and q value for the slope of regression formula. A gene containing the probe sets with the q value of less than 5% was determined as a candidate gene with increased expression level of the intron regions (Table 5).
In Table 5, for the gene evaluated, gene name (Gene Name), abbreviated name (Gene Symbol), accession number (Accession), alias name (Synonym), transcription cluster number in Human Exon 1.0 ST Array (Human Exon 1.0 ST Array Transcription Cluster ID), chromosome number (Chromosome), type of strand (Strand), start region (Start), stop region (Stop), and change in expression level per 1 nM (Fold Change/nM) were respectively shown.

Measured: Fold Change/nM

CCC(O)C(C)C1OC1CC(C)(O)/C=C/C=C(\C)C1OC(=O)CC(O)CCC(C)(O)C(OC(=O)N2CCN(C3CCCCCC3)CC2)/C=C/C1C (stereo not shown) [E7107, (8E,12E,14E)-7-((4-cycloheptylpiperazin-1-yl)carbonyl)oxy-3,6,16,21-tetrahydroxy-6,10,12,16,20-pentamethyl-18,19-epoxytricosa-8,12,14-trien-11-olide]
1.07 nM⁻¹: introns of gene NET1, regression over control, 3, 10, 30 nM | introns of gene NONO, regression over control, 3, 10, 30 nM | introns of gene NUP98, regression over control, 3, 10, 30 nM | introns of gene NXF1, regression over control, 3, 10, 30 nM | introns of gene PDXK // C21orf124, regression over control, 3, 10, 30 nM | introns of gene PPP1R10, regression over control, 3, 10, 30 nM | introns of gene PPP2CA, regression over control, 3, 10, 30 nM | introns of gene RAB5A, regression over control, 3, 10, 30 nM | introns of gene RAB6IP1, regression over control, 3, 10, 30 nM | introns of gene RP2, regression over control, 3, 10, 30 nM | introns of gene SESN3, regression over control, 3, 10, 30 nM | introns of gene SLC16A3, regression over control, 3, 10, 30 nM | introns of gene TBC1D23, regression over control, 3, 10, 30 nM | introns of gene TBK1, regression over control, 3, 10, 30 nM | introns of gene TCEB3, regression over control, 3, 10, 30 nM | introns of gene UTY // UTX (chrY, cluster 4035017), regression over control, 3, 10, 30 nM
1.06 nM⁻¹: introns of gene NOTCH2 // NBPF14, regression over control, 3, 10, 30 nM | introns of gene NP, regression over control, 3, 10, 30 nM | introns of gene PDCD4, regression over control, 3, 10, 30 nM | introns of gene PDE4B, regression over control, 3, 10, 30 nM | introns of gene PHF12, regression over control, 3, 10, 30 nM | introns of gene PIK3AP1, regression over control, 3, 10, 30 nM | introns of gene PLAUR, regression over control, 3, 10, 30 nM | introns of gene PRPF8, regression over control, 3, 10, 30 nM | introns of gene PSMA5, regression over control, 3, 10, 30 nM | introns of gene PSTPIP2, regression over control, 3, 10, 30 nM | introns of gene PUM2, regression over control, 3, 10, 30 nM | introns of gene RAB8B, regression over control, 3, 10, 30 nM | introns of gene RAD50, regression over control, 3, 10, 30 nM | introns of gene REL, regression over control, 3, 10, 30 nM | introns of gene RNF10, regression over control, 3, 10, 30 nM | introns of gene SERPINB8, regression over control, 3, 10, 30 nM | introns of gene SIPA1L1, regression over control, 3, 10, 30 nM | introns of gene SLC7A5 // LAT1-3TM, regression over control, 3, 10, 30 nM | introns of gene SLC43A2, regression over control, 3, 10, 30 nM | introns of gene SNX9 // SYNJ2, regression over control, 3, 10, 30 nM | introns of gene SOS2, regression over control, 3, 10, 30 nM | introns of gene STARD7, regression over control, 3, 10, 30 nM | introns of gene SYAP1, regression over control, 3, 10, 30 nM | introns of gene TJP2, regression over control, 3, 10, 30 nM | introns of gene TNIK, regression over control, 3, 10, 30 nM | introns of gene TNIP1, regression over control, 3, 10, 30 nM | introns of gene TRAF1, regression over control, 3, 10, 30 nM | introns of gene UTX // UTY (chrX, cluster 3975467), regression over control, 3, 10, 30 nM | introns of gene XPO1 // THRB, regression over control, 3, 10, 30 nM | introns of gene YIPF5, regression over control, 3, 10, 30 nM | introns of gene ZFP91 // CNTF, regression over control, 3, 10, 30 nM
1.05 nM⁻¹: introns of gene NOLC1, regression over control, 3, 10, 30 nM | introns of gene PITPNA // MYO1C, regression over control, 3, 10, 30 nM | introns of gene PSMD2, regression over control, 3, 10, 30 nM | introns of gene PSMD7, regression over control, 3, 10, 30 nM | introns of gene RAE1, regression over control, 3, 10, 30 nM | introns of gene SLU7, regression over control, 3, 10, 30 nM | introns of gene SMC1A, regression over control, 3, 10, 30 nM | introns of gene TIMM23, regression over control, 3, 10, 30 nM | introns of gene UBE2Z, regression over control, 3, 10, 30 nM | introns of gene WIPI2, regression over control, 3, 10, 30 nM | introns of gene YY1, regression over control, 3, 10, 30 nM
1.04 nM⁻¹: introns of gene NFKBIE, regression over control, 3, 10, 30 nM | introns of gene NIN, regression over control, 3, 10, 30 nM | introns of gene NINJ1, regression over control, 3, 10, 30 nM | introns of gene NRIP1, regression over control, 3, 10, 30 nM | introns of gene NUPL1, regression over control, 3, 10, 30 nM | introns of gene PLAGL2, regression over control, 3, 10, 30 nM | introns of gene PLRG1, regression over control, 3, 10, 30 nM | introns of gene POGZ, regression over control, 3, 10, 30 nM | introns of gene POLR1C, regression over control, 3, 10, 30 nM | introns of gene POLR2B, regression over control, 3, 10, 30 nM | introns of gene PPP1CC, regression over control, 3, 10, 30 nM | introns of gene PPP1R12A, regression over control, 3, 10, 30 nM | introns of gene PRPF3 // KIAA0460, regression over control, 3, 10, 30 nM | introns of gene PTBP1, regression over control, 3, 10, 30 nM | introns of gene PXK, regression over control, 3, 10, 30 nM | introns of gene RAB14, regression over control, 3, 10, 30 nM | introns of gene RELA, regression over control, 3, 10, 30 nM | introns of gene RNF40, regression over control, 3, 10, 30 nM | introns of gene RSPRY1, regression over control, 3, 10, 30 nM | introns of gene SAPS3, regression over control, 3, 10, 30 nM | introns of gene SART3, regression over control, 3, 10, 30 nM | introns of gene SDCBP, regression over control, 3, 10, 30 nM | introns of gene SEC23IP, regression over control, 3, 10, 30 nM | introns of gene SERBP1, regression over control, 3, 10, 30 nM | introns of gene SF1, regression over control, 3, 10, 30 nM | introns of gene SF3B3, regression over control, 3, 10, 30 nM | introns of gene SLC35B1, regression over control, 3, 10, 30 nM | introns of gene SLC43A3, regression over control, 3, 10, 30 nM | introns of gene SLK, regression over control, 3, 10, 30 nM | introns of gene SNRP70, regression over control, 3, 10, 30 nM | introns of gene SORL1 // C11orf32, regression over control, 3, 10, 30 nM | introns of gene SPTAN1, regression over control, 3, 10, 30 nM | introns of gene STAT5B, regression over control, 3, 10, 30 nM | introns of gene TBP, regression over control, 3, 10, 30 nM | introns of gene TFRC, regression over control, 3, 10, 30 nM | introns of gene TGFB1, regression over control, 3, 10, 30 nM | introns of gene TMBIM1, regression over control, 3, 10, 30 nM | introns of gene TMEM161B // ITGA2B, regression over control, 3, 10, 30 nM | introns of gene TNFRSF25 // PLEKHG5, regression over control, 3, 10, 30 nM | introns of gene TRIM8, regression over control, 3, 10, 30 nM | introns of gene TRPC4AP, regression over control, 3, 10, 30 nM | introns of gene UBE1L2, regression over control, 3, 10, 30 nM | introns of gene USP8, regression over control, 3, 10, 30 nM | introns of gene VPS4B, regression over control, 3, 10, 30 nM | introns of gene WDR1, regression over control, 3, 10, 30 nM | introns of gene WSB1, regression over control, 3, 10, 30 nM | introns of gene YTHDC1, regression over control, 3, 10, 30 nM | introns of gene ZC3H12A, regression over control, 3, 10, 30 nM | introns of gene ZNF313, regression over control, 3, 10, 30 nM
1.08 nM⁻¹: introns of gene PELI1, regression over control, 3, 10, 30 nM | introns of gene PRPF40A, regression over control, 3, 10, 30 nM | introns of gene PSCD1, regression over control, 3, 10, 30 nM | introns of gene TIMP1, regression over control, 3, 10, 30 nM | introns of gene VIL2, regression over control, 3, 10, 30 nM
